This assay is described as follows: inhibitors of Cryptococcus chitosan production, flow cytometry, Cibacron Brilliant Red staining (AID 1347148).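 Also: compound exposure lasted three days at 37 degrees C.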 The note with it: Cryptococcus neoformans chitosan, at 107.2 µM, active compounds read low.

Only a part is listed here, and it is no random draw. Calls of active or inactive are those of the source. No rule for the calls is given here.

The source of these data is PubChem BioAssay.

As for `CN[C@@H]1C[C@H]2O[C@@](C)([C@@H]1OC)n1c3ccccc3c3c4c(c5c6ccccc6n2c5c31)C(=O)NC4`, the fold fluorescence is inactive: 4.51.
